The target of test [1] is wild-type RNF11 tagged with a V5 epitope (N2A V5-RNF11) (human) (UniProt Q9Y3C5). As to the kind of experiment: co-IP; lysates of N2A cells transduced with V5-RNF11 lentivirus, with or without transfected FLAG-A20; IP with V5, FLAG or Itch antibody; control IP with antibody omitted; immunoblot with anti-A20, Itch and RNF11. On the technique in general: In western blotting, separated proteins are transferred to a membrane and probed.

Chains of the proteins cited; added tags and fusions are not shown. Lines headed by an entry give the natural chain unless they say otherwise; changes in a name come on top.
UniProt Q8C863: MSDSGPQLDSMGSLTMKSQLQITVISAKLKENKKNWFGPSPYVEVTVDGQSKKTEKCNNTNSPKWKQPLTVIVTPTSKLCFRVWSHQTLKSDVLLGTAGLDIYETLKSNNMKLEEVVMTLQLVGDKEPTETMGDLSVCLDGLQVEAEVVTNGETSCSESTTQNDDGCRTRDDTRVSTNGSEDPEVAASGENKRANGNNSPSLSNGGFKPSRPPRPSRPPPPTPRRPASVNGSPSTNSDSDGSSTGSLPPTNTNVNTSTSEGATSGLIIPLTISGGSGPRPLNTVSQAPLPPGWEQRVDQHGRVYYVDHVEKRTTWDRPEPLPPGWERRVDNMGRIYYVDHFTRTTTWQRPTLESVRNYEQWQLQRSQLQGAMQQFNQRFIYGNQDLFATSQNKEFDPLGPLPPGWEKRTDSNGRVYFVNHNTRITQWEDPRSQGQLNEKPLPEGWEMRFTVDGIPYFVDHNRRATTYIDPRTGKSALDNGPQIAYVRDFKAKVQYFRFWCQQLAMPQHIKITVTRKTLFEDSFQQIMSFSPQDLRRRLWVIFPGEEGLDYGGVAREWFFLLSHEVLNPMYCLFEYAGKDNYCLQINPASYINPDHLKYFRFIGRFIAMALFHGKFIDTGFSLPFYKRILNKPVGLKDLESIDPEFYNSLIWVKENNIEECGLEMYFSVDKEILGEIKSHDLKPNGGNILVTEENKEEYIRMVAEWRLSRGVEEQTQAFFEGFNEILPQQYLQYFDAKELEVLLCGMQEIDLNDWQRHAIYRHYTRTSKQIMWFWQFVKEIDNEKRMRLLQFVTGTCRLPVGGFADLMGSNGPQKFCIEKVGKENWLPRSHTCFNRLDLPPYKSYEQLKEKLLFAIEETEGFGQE

The target of test [2] is T1, endogenous RNF11 (murine primary cortical neurons) (mouse (endogenous in primary cortical neurons)) (UniProt Q9QYK7).
T1 sequence: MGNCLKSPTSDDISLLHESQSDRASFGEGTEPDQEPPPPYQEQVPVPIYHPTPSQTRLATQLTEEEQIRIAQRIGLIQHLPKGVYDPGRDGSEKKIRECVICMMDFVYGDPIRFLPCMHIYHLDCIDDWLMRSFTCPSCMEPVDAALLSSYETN
As to the kind of experiment: co-IP; lysates of murine primary cortical neurons stimulated with 10 ng/ml TNF-α for 0 or 30 minutes; IP with RNF11 antibody; control IP with antibody omitted; immunoblot with anti-A20 and Itch; densitometry normalised to input, 0 minutes set at 100%.

Test [3] has as its target T2, FLAG-tagged A20 (FLAG-A20), in N2A V5-RNF11 cells (UniProt P21580).
T2 sequence: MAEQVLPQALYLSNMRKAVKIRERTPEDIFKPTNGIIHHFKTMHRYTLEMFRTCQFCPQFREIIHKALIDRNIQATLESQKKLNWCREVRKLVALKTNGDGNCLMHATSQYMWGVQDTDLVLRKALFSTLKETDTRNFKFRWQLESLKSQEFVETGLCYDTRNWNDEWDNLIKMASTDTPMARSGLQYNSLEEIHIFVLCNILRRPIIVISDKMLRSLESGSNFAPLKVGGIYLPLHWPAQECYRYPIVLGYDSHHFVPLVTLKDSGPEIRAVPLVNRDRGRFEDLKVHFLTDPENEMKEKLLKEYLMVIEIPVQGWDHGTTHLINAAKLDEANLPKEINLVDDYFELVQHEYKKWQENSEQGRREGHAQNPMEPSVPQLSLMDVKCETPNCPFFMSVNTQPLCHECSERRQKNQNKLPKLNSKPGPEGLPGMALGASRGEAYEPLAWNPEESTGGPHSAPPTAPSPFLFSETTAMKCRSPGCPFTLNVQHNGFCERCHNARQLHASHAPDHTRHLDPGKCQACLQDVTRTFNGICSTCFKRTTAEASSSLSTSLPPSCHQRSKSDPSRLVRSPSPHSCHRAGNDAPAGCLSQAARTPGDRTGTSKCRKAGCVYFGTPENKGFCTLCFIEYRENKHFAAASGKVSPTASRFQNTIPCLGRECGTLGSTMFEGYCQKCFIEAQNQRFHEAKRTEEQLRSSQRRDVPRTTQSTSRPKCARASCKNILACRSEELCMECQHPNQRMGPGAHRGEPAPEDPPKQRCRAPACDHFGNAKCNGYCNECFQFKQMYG
As to the kind of experiment: co-IP; lysates of N2A cells transduced with V5-RNF11 lentivirus, with or without transfected FLAG-A20; IP with V5, FLAG or Itch antibody; control IP with antibody omitted; immunoblot with anti-A20, Itch and RNF11.

Test [4] concerns the target endogenous Itch (N2A cells) (mouse (endogenous in N2A)) (UniProt Q8C863). The description is as above.

The text below walks through data of paper PMC3416671.

No constants are given. Whether binding was seen depends on the method and setting. In cells and extracts the contact can be indirect. Some results given as binding are weak or reduced against the parent protein; the word gives no strength. For some of these results: Sequences can lack the tags named with a protein.

On to “endogenous Itch (N2A cells) (from UniProt Q8C863 1-864)”, for which the binding entry in test [1] is “binds”.
Consider “endogenous Itch (murine primary cortical neurons) (from UniProt Q8C863 1-864)”, for which the binding entry in test [2] was “binds”.
For the substance “wild-type RNF11 tagged with a V5 epitope (N2A V5-RNF11) (from UniProt Q9Y3C5 1-154)”, the binding result in test [3] and in test [4] was “binds” each time.
